Assay results reported in paper PMC8511950.
These are yes or no findings as the source states them, for the method shown. Binding seen in cells or lysates may run through a third protein. Some entries that bind do so weakly or less than the wild type.

Amino acid sequences for entries named in this document (tags omitted).
UniProt P16370: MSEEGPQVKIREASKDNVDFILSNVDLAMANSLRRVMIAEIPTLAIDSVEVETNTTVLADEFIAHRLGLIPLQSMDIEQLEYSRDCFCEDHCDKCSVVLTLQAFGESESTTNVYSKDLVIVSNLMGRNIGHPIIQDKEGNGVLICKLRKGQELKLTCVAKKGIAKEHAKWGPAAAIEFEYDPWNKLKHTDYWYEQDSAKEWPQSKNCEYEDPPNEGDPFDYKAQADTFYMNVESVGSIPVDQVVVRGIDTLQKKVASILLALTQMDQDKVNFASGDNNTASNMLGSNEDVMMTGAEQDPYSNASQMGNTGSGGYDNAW

Columns and labels:
[1] = target: FLAG-tagged Rpb3 (S. cerevisiae) (UniProt P16370); test: co-IP; Rpb3-FLAG precipitated with anti-Flag agarose from whole cell lysates of uncrosslinked wildtype and spt6-1004 cells at 30 °C and after the shift to 37 °C; IP buffer 20 mM Hepes-KOH pH 7.6, 125 mM potassium acetate, 1% NP-40; 2 h at 4 °C; Western blot
[2] = target: Rpb3 with C-terminal BioTAP tag (S. cerevisiae) (UniProt P16370); test: pull-down; BioTAP-XL two-step purification of Rpb3-BioTAP (IgG beads, then streptavidin agarose) from 1% formaldehyde-cross-linked, sonicated cells shifted to 37 °C for 80 min; Western blot at the stages of purification; untagged cells as control

B1: Spt5 (protein, UniProt P27692 1-1063)
chain: MSDNSDTNVSMQDHDQQFADPVVVPQSTDTKDENTSDKDTVDSGNVTTTESTERAESTSNIPPLDGEEKEAKSEPQQPEDNAETAATEQVSSSNGPATDDAQATLNTDSSEANEIVKKEEGSDERKRPREEDTKNSDGDTKDEGDNKDEDDDEDDDDDDDDEDDDDEAPTKRRRQERNRFLDIEAEVSDDEDEDEDEEDSELVREGFITHGDDEDDEASAPGARRDDRLHRQLDQDLNKTSEEDAQRLAKELRERYGRSSSKQYRAAAQDGYVPQRFLLPSVDTATIWGVRCRPGKEKELIRKLLKKKFNLDRAMGKKKLKILSIFQRDNYTGRIYIEAPKQSVIEKFCNGVPDIYISQKLLIPVQELPLLLKPNKSDDVALEEGSYVRIKRGIYKGDLAMVDQISENNLEVMLKIVPRLDYGKFDEIDPTTQQRKSRRPTFAHRAPPQLFNPTMALRLDQANLYKRDDRHFTYKNEDYIDGYLYKSFRIQHVETKNIQPTVEELARFGSKEGAVDLTSVSQSIKKAQAAKVTFQPGDRIEVLNGEQRGSKGIVTRTTKDIATIKLNGFTTPLEFPISTLRKIFEPGDHVTVINGEHQGDAGLVLMVEQGQVTFMSTQTSREVTITANNLSKSIDTTATSSEYALHDIVELSAKNVACIIQAGHDIFKVIDETGKVSTITKGSILSKINTARARVSSVDANGNEIKIGDTIVEKVGSRREGQVLYIQTQQIFVVSKKIVENAGVFVVNPSNVEAVASKDNMLSNKMDLSKMNPEIISKMGPPSSKTFQQPIQSRGGREVALGKTVRIRSAGYKGQLGIVKDVNGDKATVELHSKNKHITIDKHKLTYYNREGGEGITYDELVNRRGRVPQARMGPSYVSAPRNMATGGIAAGAAATSSGLSGGMTPGWSSFDGGKTPAVNAHGGSGGGGVSSWGGASTWGGQGNGGASAWGGAGGGASAWGGQGTGATSTWGGASAWGNKSSWGGASTWASGGESNGAMSTWGGTGDRSAYGGASTWGGNNNNKSTRDGGASAWGNQDDGNRSAWNNQGNKSNYGGNSTWGGH
In the case of B1, the binding [1] is reported as “binds” and the binding [2] is reported as “binds”.

B2: Spn1 (protein, UniProt Q06505 1-410)
chain: MSTADQEQPKVVEATPEDGTASSQKSTINAENENTKQNQSMEPQETSKGTSNDTKDPDNGEKNEEAAIDENSNVEAAERKRKHISTDFSDDDLEKEEHNDQSLQPTVENRASKDRDSSATPSSRQELEEKLDRILKKPKVRRTRRDEDDLEQYLDEKILRLKDEMNIAAQLDIDTLNKRIETGDTSLIAMQKVKLLPKVVSVLSKANLADTILDNNLLQSVRIWLEPLPDGSLPSFEIQKSLFAALNDLPVKTEHLKESGLGRVVIFYTKSKRVEAQLARLAEKLIAEWTRPIIGASDNYRDKRIMQLEFDSEKLRKKSVMDSAKNRKKKSKSGEDPTSRGSSVQTLYEQAAARRNRAAAPAQTTTDYKYAPVSNLSAVPTNARAVGVGSTLNNSEMYKRLTSRLNKKHK
In the case of B2, the binding [1] is reported as “binds”.

B3: Set2 (enzyme, UniProt P46995 1-733)
chain: MSKNQSVSASEDEKEILNNNAEGHKPQRLFDQEPDLTEEALTKFENLDDCIYANKRIGTFKNNDFMECDCYEEFSDGVNHACDEDSDCINRLTLIECVNDLCSSCGNDCQNQRFQKKQYAPIAIFKTKHKGYGVRAEQDIEANQFIYEYKGEVIEEMEFRDRLIDYDQRHFKHFYFMMLQNGEFIDATIKGSLARFCNHSCSPNAYVNKWVVKDKLRMGIFAQRKILKGEEITFDYNVDRYGAQAQKCYCEEPNCIGFLGGKTQTDAASLLPQNIADALGVTVSMEKKWLKLKKLSGEPIIKNENENINIEFLQSLEVQPIDSPVDVTKIMSVLLQQDNKIIASKLLKRLFTIDDDSLRHQAIKLHGYTCFSKMLKLFITEQPQVDGKGNETEEDDIKFIKGILDFLLELPKTTRNGIESSQIDNVVKTLPAKFPFLKPNCDELLEKWSKFETYKRITKKDINVAASKMIDLRRVRLPPGWEIIHENGRPLYYNAEQKTKLHYPPSGSSKVFSSRSNTQVNSPSSSGIPKTPGALDSKKHKLSDEEYERKKQKRLEYERIALERAKQEELESLKQKLKLENERKSVLEDIIAEANKQKELQKEEAKKLVEAKEAKRLKRKTVSQSQRLEHNWNKFFASFVPNLIKKNPQSKQFDHENIKQCAKDIVKILTTKELKKDSSRAPPDDLTKGKRHKVKEFINSYMDKIILKKKQKKALALSSASTRMSSPPPSTSS
For B3, the binding [1] was “binds”.

B4: Iwr1 (protein, UniProt Q07532 1-353)
chain: MSTISTTTAPEFIRVKRRRDEDSVQALLIDEGKRVKKQKFIFKLSKTVSSESYQSEQESSTPLLKLAHEDHRHFVLEQRKKSRRDSDDEKSQQRLAAEGSTVDDDGLPPEINQMVNDYLKLNKGVEKTERKKPSRKYFTGDSAKIASLPSLDYVFDIYHLEKIHDDEVARYNNEKNIGFVKIIEHIDLALDEESDPNEARSDDEDSNDENYYQNDYPEDEDDDRSILFGSEGEDIAALGEEIVIGVNKSRFSSWNDDKIQGSNGYHDVEEEYGDLFNRLGGKSDVLKSINSSNFIDLDGQEGEIEISDNEDDSDEGDDIEYPRNEFFPTDVDDPLAHHRDRIFHQLQKKINRS
For B4, the binding [1] was “binds”.
